“And” between values parts separate entries of the source, which are not always exact repeats. Equal entries are not always repeated. The campaign covered roughly 400,000 compounds. About 5,500 (1.4%) were called active. Inconclusive results, whose numbers are uncertain, are shown with a selection of clear calls. Calls follow the shape of the dose curve; as a rule, active = well fitted cell-killing curve with a large enough effect; inconclusive = small, poorly fitted or top-dose-only effect, or effect the other way; inactive = flat fitted curve, though single readings scatter. Potencies of inconclusive entries are doubtful fits and often do not repeat.
Test: qHTS assay for MDR1-selective chemotherapeutics: Primary screen using the parental adenocarcinoma cell KB-3-1; also: nearly all actives have a fitted effect of over 60% in size
Conditions: KB-3-1 viability, CellTiter-Glo ATP luminescence, 72 h; activity change, negative = cytotoxic: at 46.1 µM (top of the series)
Procedure, shortened: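 Luminescent ATP read-out (CellTiter-Glo) measures survival of drug-naive KB-3-1 cells after 72 h compound exposure at 37 °C. Titration series was screened from lowest to highest concentration, with DMSO vehicle plates as background controls.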
% is scaled to controls: 0 for no effect and ±100 for the full control effect; potency is read from the fitted curve at half-maximal effect.

| Structure (SMILES) | Potency | activity change, negative = cytotoxic |
| --- | --- | --- |
| CCC(C)Sc1cc(-c2nc3cc(C)ccn3c2NC2CCCCC2)ccc1OC (stereo not drawn) | inconclusive: 29.1 µM [cytotoxic, single point] | – |
| COc1cccc(Cn2c(=O)n(CC3CCC(C(=O)NC(C)C)CC3)c(=O)c3sccc32)c1 (stereo not drawn) | inactive | – |
| CCNC(=S)N(Cc1cc2cccc(C)c2[nH]c1=O)C1CCCC1 | inconclusive: 9.2 µM [rising, partial curve] | – |
| CC1=CC(=O)C(C(C)C)=C/C1=N/OS(=O)(=O)c1ccccc1 | inconclusive: 18.4 µM [cytotoxic, single point] | – |
| O=[N+]([O-])c1cc(/C=N/Nc2nc(N3CCCCC3)nc(N3CCCCC3)n2)ccc1O | inactive | – |
| CC(=O)N1CCCc2cc(S(=O)(=O)N3CCCC(C(=O)N4CCN(c5cccc(Cl)c5)CC4)C3)ccc21 (stereo not drawn) | inconclusive: 5.8 µM [cytotoxic, partial curve, poor fit] and inconclusive: 4.61 µM [cytotoxic, partial curve, poor fit] | – |
| CCOc1cc2sc(N3CCC(C(=O)Nc4ccc(CC)cc4)CC3)nc2cc1Br | inactive | – |
| COc1cc(C(=O)NC(=S)Nc2nc(-c3ccc(F)cc3)cs2)cc(OC)c1OC | inconclusive: 5.17 µM [rising, full curve, poor fit] | – |
| O=C(CCN1C(=O)/C(=C\c2ccccc2)SC1=S)N1CCCCC1 | inconclusive: 16.4 µM [cytotoxic, single point] | – |
| Cc1cc(C)n(-c2ccc(C(=O)Nc3cccc(S(=O)(=O)N(C)C)c3)cc2)n1 | inconclusive: 10.3 µM [cytotoxic, partial curve] | – |
| O=C(NC1CCCC1)C1c2ccccc2OCC(=O)N1C1CC1 (stereo not drawn) | inactive | – |
| Cc1cc2c(n1-c1ccc(C(=O)NCCc3ccc(Cl)cc3)cc1)CCCC2 | inactive | – |
| CCCCC1=CC2=CC(=O)C(C)(OC(=O)c3cccs3)C(=O)C2=CO1 (stereo not drawn) | inactive | – |
| CCCn1nc2cc(C(=O)NCCCCc3ccccc3)ccc2c1OCC | inconclusive: 29.1 µM [cytotoxic, single point] | – |
| CCN(CC)CCNc1nc2cc(OC)c(OC)cc2c2nc(-c3ccccc3)nn12 | active: 16.4 µM | – |
| CC[C@]12c3[nH]c4cc(-c5ccco5)ccc4c3CCN1C(=O)[C@@H](CC(=O)NC/C=C(\C)CCC=C(C)C)C[C@@H]2C(=O)N1CCN(C(=O)C2CC2)CC1 | inconclusive: 29.1 µM [cytotoxic, single point] | – |
| CCOC(=O)N1CCN(C(=O)c2nn(-c3ccc(C)cc3)c(=O)c3c2c2ccccc2n3C)CC1 | inconclusive: 18.4 µM [cytotoxic, single point] | – |
| COc1cccc(CN2CC(C(=O)NC3CCC3)CCC2=O)c1 (stereo not drawn) | inactive | – |
| Cc1ccccc1OCc1ccc(C(=O)N2CCOCC2)o1 | inactive | – |
| CCN(CC)c1ccc2nc3ccccc3[n+](CC)c2c1 | active: 3.66 µM | – |
| CN(C)c1ccc(C(CNS(=O)(=O)c2cccc([N+](=O)[O-])c2)N2CCOCC2)cc1 (stereo not drawn) | inconclusive: 2.91 µM [cytotoxic, partial curve, poor fit] | – |
| Cc1cccc(NC(=O)CN2CCN(C(=O)CN3C(=O)NC4(CC(C)CC(C)(C)C4)C3=O)CC2)c1C (stereo not drawn) | inactive | – |
| CCCCNc1c(-c2ccc(OC)c(SC(C)CC)c2)nc2cnccn12 (stereo not drawn) | inconclusive: 29.1 µM [cytotoxic, single point] | – |

Among those listed so far, these contain nitrogen in an aromatic ring.

| Structure (SMILES) | Potency | activity change, negative = cytotoxic |
| --- | --- | --- |
| CCC(C)Sc1cc(-c2nc3cc(C)ccn3c2NC2CCCCC2)ccc1OC (stereo not drawn) | inconclusive: 29.1 µM [cytotoxic, single point] | – |
| COc1cccc(Cn2c(=O)n(CC3CCC(C(=O)NC(C)C)CC3)c(=O)c3sccc32)c1 (stereo not drawn) | inactive | – |
| CCNC(=S)N(Cc1cc2cccc(C)c2[nH]c1=O)C1CCCC1 | inconclusive: 9.2 µM [rising, partial curve] | – |
| O=[N+]([O-])c1cc(/C=N/Nc2nc(N3CCCCC3)nc(N3CCCCC3)n2)ccc1O | inactive | – |
| CCOc1cc2sc(N3CCC(C(=O)Nc4ccc(CC)cc4)CC3)nc2cc1Br | inactive | – |
| COc1cc(C(=O)NC(=S)Nc2nc(-c3ccc(F)cc3)cs2)cc(OC)c1OC | inconclusive: 5.17 µM [rising, full curve, poor fit] | – |
| Cc1cc(C)n(-c2ccc(C(=O)Nc3cccc(S(=O)(=O)N(C)C)c3)cc2)n1 | inconclusive: 10.3 µM [cytotoxic, partial curve] | – |
| Cc1cc2c(n1-c1ccc(C(=O)NCCc3ccc(Cl)cc3)cc1)CCCC2 | inactive | – |
| CCCn1nc2cc(C(=O)NCCCCc3ccccc3)ccc2c1OCC | inconclusive: 29.1 µM [cytotoxic, single point] | – |
| CCN(CC)CCNc1nc2cc(OC)c(OC)cc2c2nc(-c3ccccc3)nn12 | active: 16.4 µM | – |
| CC[C@]12c3[nH]c4cc(-c5ccco5)ccc4c3CCN1C(=O)[C@@H](CC(=O)NC/C=C(\C)CCC=C(C)C)C[C@@H]2C(=O)N1CCN(C(=O)C2CC2)CC1 | inconclusive: 29.1 µM [cytotoxic, single point] | – |
| CCOC(=O)N1CCN(C(=O)c2nn(-c3ccc(C)cc3)c(=O)c3c2c2ccccc2n3C)CC1 | inconclusive: 18.4 µM [cytotoxic, single point] | – |
| CCN(CC)c1ccc2nc3ccccc3[n+](CC)c2c1 | active: 3.66 µM | – |
| CCCCNc1c(-c2ccc(OC)c(SC(C)CC)c2)nc2cnccn12 (stereo not drawn) | inconclusive: 29.1 µM [cytotoxic, single point] | – |

The results go on:

| Structure (SMILES) | Potency | activity change, negative = cytotoxic |
| --- | --- | --- |
| CCCc1nc2ccccc2n1C(=S)SC | inactive | – |
| CCC1=NN2C(=N)/C(=C\c3cccn3-c3c(C)cccc3C)C(=O)N=C2S1 | inconclusive: 20.6 µM [rising, single point] | – |
| Cc1cc(C)cc(Oc2ccccc2C=O)c1 | inconclusive: 29.1 µM [cytotoxic, single point] | – |
| CS(=O)(=O)N1CCc2cc(C(=O)N3CCN(c4cccc(Cl)c4)CC3)ccc21 | inconclusive: 23.1 µM [cytotoxic, single point] | – |
| Cc1ccc2nc(N3CCN(C)CC3)c(C#N)cc2c1 | inactive | – |
| CC(C)(C)N1CC(C(=O)Nc2ccc(C(N)=O)cc2)CC1=O (stereo not drawn) | inconclusive: 14.6 µM [cytotoxic, partial curve, poor fit] | – |
| COc1ccc(CC2(CO)CCN(CC3=Cc4cc(Cl)ccc4OC3)CC2)cc1 | – | inconclusive: -2.63% |
| Cn1c(=O)c2c(nc(NCc3cccnc3)n2Cc2cccc(C(F)(F)F)c2)n(C)c1=O | inactive | – |
| COc1cccc(NC(=O)Cn2nnc(C(=O)NCc3cccs3)c2N)c1 | inactive | – |
| CCCCCCN1C[C@H](O)[C@@H](n2cc(C3CC3)nn2)C[C@@H]1c1ccc(C)cc1 | inconclusive: 29.1 µM [cytotoxic, single point] | – |
| Cc1cccc(Nc2nnc(SCc3cc(=O)n4cc(C)ccc4n3)s2)c1 | inactive | – |
| Cc1ccc(S(=O)(=O)NNC(=O)C(=O)NNc2ccccn2)cc1 | inconclusive: 23.1 µM [cytotoxic, single point] | – |
| O=C(NCCN1CCCCC1)Nc1cccc(C(F)(F)F)c1 | inactive | – |
| CC(C)CC(C(=O)Oc1ccc2c3c(c(=O)oc2c1)CCC3)N1C(=O)c2ccccc2C1=O (stereo not drawn) | inconclusive: 0.0731 µM [cytotoxic, full curve] | – |
| Cc1ccc(NC(=O)/C=C/c2ccco2)nc1 | active: 0.164 µM | – |
| C#CCOCCOCCOCCNc1nc(N2CCN(C(=O)CCCCCCCCCCNC(=O)Cn3cc(CCCCCN)nn3)CC2)nc(N2CCN(C(=O)CCCCCCCCCCNC(=O)[C@H]([C@@H](C)CC)n3cc(CCCCCN)nn3)CC2)n1 | inconclusive: 32.6 µM [cytotoxic, single point] | – |
| C[C@@H]1CN([C@H](C)CO)C(=O)c2c(c3ccccc3n2C)-c2ccccc2CO[C@H]1CN(C)Cc1ccc(Oc2ccccc2)cc1 | inconclusive: 29.1 µM [cytotoxic, single point] | – |
| O=C(NCCCO)c1cc2c([nH]c3ccccc32)c(-c2ccccc2)n1 | inconclusive: 29.1 µM [cytotoxic, single point] | – |
| O=C(NCC1CCCO1)c1cccc2c1C(=O)c1ccc(N3CCC(Cc4ccccc4)CC3)cc1S2(=O)=O (stereo not drawn) | inconclusive: 18.4 µM [cytotoxic, partial curve] | – |
| COc1ccccc1-n1nnnc1S(=O)(=O)Cc1ccc(Cl)cc1 | inconclusive: 13 µM [cytotoxic, partial curve] | – |
| Cc1ccc2c(c1)[C@H]1[C@H](CO2)[C@H](c2ccccc2)[C@]2(C)C(=O)Nc3ccc(Cl)cc3C(=O)N12 | inconclusive: 29.1 µM [cytotoxic, single point] | – |
| COc1ccccc1N1CCN(c2nccc(C)n2)CC1 | inactive | – |
| O=C(CCc1c[nH]c2ccccc12)NCCOc1ccccc1 | inconclusive: 23.1 µM [rising, single point] | – |

| Structure (SMILES) | Potency | activity change, negative = cytotoxic |
| --- | --- | --- |
| O=c1cc(-c2ccccc2)[nH]n1-c1nc2ccccc2[nH]1 | inconclusive: 28.2 µM [cytotoxic, single point] | – |
| O=C1Nc2ccc3c(c2C1=Cc1cc2c(cc1Br)OCO2)OCO3 | active: 5.17 µM | – |
| Cc1[nH]n2c(=O)c3c(nc2c1-c1ccccc1)CCCC3 | inconclusive: 10.3 µM [cytotoxic, partial curve] | – |
| CC(C)=CCC/C(C)=C/CNC(=O)C[C@H]1C[C@H](C(=O)N2CCCCC2)[C@@]2(C)c3[nH]c4cc(-c5ccco5)ccc4c3CCN2C1=O | inconclusive: 23.1 µM [cytotoxic, single point] | – |
| Cc1ccc(C)c(N(C)C(=O)CCS(=O)(=O)c2cccc3nonc23)c1 | inactive | – |
| CCOc1ccc(-c2cc(C(=O)N3CCN(c4cc(Cl)ccc4C)CC3)c3ccccc3n2)cc1 | inactive | – |
| Cc1ccc(-n2cnc(=O)c3cccnc32)cc1 | inactive | – |
| CCCSc1nc(N)c2c3c(sc2n1)CN(C)CC3 | inconclusive: 32.6 µM [cytotoxic, single point] | – |
| CCCCN(CC(=O)Nc1c(C)cccc1CC)C(=O)SCC | inactive | – |
| COc1ccc(C2NC(=S)NC3=C2CCCC3=C2SCCS2)cc1 (stereo not drawn) | inconclusive: 29.1 µM [cytotoxic, single point] | – |
| CCn1c(SCC(=O)c2[nH]c(C)c(C(C)=O)c2C)nnc1-c1cccs1 | inconclusive: 18.4 µM [cytotoxic, single point] | – |
| COCCCNc1c2c3c(cccc3[nH]c1=O)C(=O)c1ccccc1-2 | active: 5.8 µM | – |
| Cc1cc(Cl)ccc1OCC(=O)NC1CCCC1 | inconclusive: 29.1 µM [cytotoxic, single point] | – |
| CCc1ccc(C(O)c2ncc(-c3cccc4ccccc34)[nH]2)cc1 (stereo not drawn) | inconclusive: 29.1 µM [cytotoxic, single point] | – |
| CN(C(=O)c1cccc(NC(=O)Cc2cccc(NC(=O)C3CCN(C(=O)CCc4ccccc4)CC3)c2)c1)C1CC1 | inactive | – |
| COc1ccc(N=C2SCC(=O)N2CCc2ccc(OC)c(OC)c2)cc1 | inconclusive: 18.4 µM [cytotoxic, single point] | – |
| COCCNC(=O)c1c[nH]c2ccc(S(=O)(=O)Nc3ccccc3F)cc2c1=O | inactive | – |
| CCCCCCCCCCOC(=O)Cn1c(COc2ccccc2)[n+](C)c2ccccc21 | inactive | – |
| COc1ccc(Nc2ccc3c(c2)=NC2(CCCCC2)[N+]=3[O-])cc1 | active: 14.6 µM | – |
| COc1cccc(-c2sc3ccccc3c2-c2ccc(OCCN3CCCC3)cc2)c1 | inconclusive: 29.1 µM [cytotoxic, single point] | – |
| COC(=O)CC1(C(=O)OC)Oc2ccc(Br)cc2C(=O)N1c1cccc(Cl)c1Cl (stereo not drawn) | inconclusive: 18.4 µM [cytotoxic, partial curve] | – |
| Cc1ncc(CO)c2c1Oc1nc(-c3ccccc3F)nc(SCC(=O)N(C)c3ccccc3)c1C2 | inactive | – |

Single values from the results shown:
Under Potency, Cc1cc(Cl)ccc1OCC(=O)NC1CCCC1 has inconclusive: 29.1 µM [cytotoxic, single point]
Under Potency, Cc1[nH]n2c(=O)c3c(nc2c1-c1ccccc1)CCCC3 has inconclusive: 10.3 µM [cytotoxic, partial curve]

Reference: PubChem BioAssay AID1347075 (National Center for Advancing Translational Sciences (NCATS), 2019)
